Source: the supplement of paper PMC12462457
Structures can show the parent of a compound that is named as a salt. ± gives the standard deviation of the averaged measurements. The list shows a part of the results. This data set is noisy: repeats of one test often differ as much as different tests do.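 Cells were counted by imaging DAPI-stained nuclei, and cells lacking phalloidin-stained cytoplasm were excluded as dead. Each well's count was divided by the median count of the vehicle wells on the same plate, and values were averaged over two replicate plates.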

Test system: OVCAR8
Experiment: cell count relative to DMSO vehicle (fold change); higher = more surviving senescent cells (less killing)
Conditions: senescence inducer: cisplatin 10 µM 48 h, then 6 d recovery (CP senescent), exposure time 24 h

SMILES	cell count (compound dose 1 µM)	cell count (compound dose 5 µM)
CCCCCOC(=O)Nc1nc(=O)n([C@@H]2O[C@H](C)[C@@H](O)[C@H]2O)cc1F [Capecitabine]	1 ± 0.072	0.976 ± 0.1
CN(C)CC[C@H](CSc1ccccc1)Nc1ccc(S(=O)(=O)NC(=O)c2ccc(N3CCC(C)(C)CC3)cc2)cc1[N+](=O)[O-]	1.23 ± 0.064	0.625 ± 0.19
NC(=O)c1ccc(-c2cc(-c3ccc([N+](=O)[O-])cc3)nc(-c3ccco3)c2)cc1	1.18 ± 0.05	1.06 ± 0.24
Nc1c(C(=O)NCc2ccc(C(=O)NCCCC3CCCCC3)cc2)cnn1-c1ccccc1	1.28 ± 0.058	1.05 ± 0.0035
CC(O)(P(=O)(O)O)P(=O)(O)O [Etidronic acid]	1.01 ± 0.028	1.052 ± 0.0071
CC[C@@H]1/C=C(\C)C[C@H](C)C[C@H](OC)[C@H]2O[C@@](O)(C(=O)C(=O)N3CCCC[C@H]3C(=O)O[C@H](/C(C)=C/[C@@H]3CC[C@@H](O)[C@H](OC)C3)[C@H](C)[C@@H](O)CC1=O)[C@H](C)C[C@@H]2OC [Ascomycin]	0.96 ± 0.2	0.806 ± 0.042
COc1ccc(N2C(=O)/C(=C\c3ccc([N+](=O)[O-])s3)SC2=S)cc1	0.583 ± 0.053	0.338 ± 0.2
C/C=C(/C)C(=O)O[C@H]1[C@H](OC(C)=O)[C@@]2(CO)C(CC1(C)C)C1=CCC3[C@@]4(C)CCC(O[C@@H]5O[C@H](C(=O)O)[C@@H](O[C@@H]6O[C@H](CO)[C@@H](O)[C@H](O)[C@H]6O)[C@H](O)[C@H]5O[C@@H]5O[C@H](CO)[C@@H](O)[C@H](O)[C@H]5O)[C@](C)(CO)C4CC[C@@]3(C)[C@]1(C)C[C@H]2O.C/C=C(\C)C(=O)O[C@H]1[C@H](OC(C)=O)[C@@]2(CO)C(CC1(C)C)C1=CCC3[C@@]4(C)CCC(O[C@@H]5O[C@H](C(=O)O)[C@@H](O[C@@H]6O[C@H](CO)[C@@H](O)[C@H](O)[C@H]6O)[C@H](O)[C@H]5O[C@@H]5O[C@H](CO)[C@@H](O)[C@H](O)[C@H]5O)[C@](C)(CO)C4CC[C@@]3(C)[C@]1(C)C[C@H]2O (stereo partly drawn) [Escin]	1.18 ± 0.12	0.827 ± 0.32
Cc1cc(Nc2cc(N3CCN(C)CC3)nc(/C=C/c3ccccc3)n2)n[nH]1 [ENMD-2076 L-(+)-Tartaric acid]	1.1 ± 0.042	0.694 ± 0.18
Cc1cc(Nc2cc(N3CCN(C)CC3)nc(/C=C/c3ccccc3)n2)n[nH]1	1.473 ± 0.0071	0.863 ± 0.0028
COc1ccc(C2CC(c3ccccc3)=NN2c2ccc(S(N)(=O)=O)cc2)cc1 (stereo not drawn)	0.975 ± 0.078	0.959 ± 0.35
CCCCOc1nc(N)c2c(n1)N(Cc1cccc(CN3CCCC3)c1)CC(=O)N2 [Vesatolimod]	0.739 ± 0.033	0.759 ± 0.1
CN(C)c1cccc(-c2c3c(=O)n(-c4ccccc4Cl)[nH]c3cc(=O)n2C)c1 [Setanaxib]	1.03 ± 0.079	0.581 ± 0.5
CCCCCCCCCCCC1=C(O)C(=O)C=C(O)C1=O [Embelin]	1.36 ± 0.37	1.07 ± 0.021
CCC(Sc1nnc2c(n1)[nH]c1ccccc12)C(=O)N1c2ccccc2Sc2ccccc21 (stereo not drawn) [Inauhzin]	0.9425 ± 0.005	0.758 ± 0.39
CC(=O)N[C@H](Cc1ccc(O)cc1)C(=O)N[C@H](CCCN=C(N)N)C(=O)N[C@H](Cc1ccccc1)C(N)=O	0.813 ± 0.17	0.86 ± 0.028
O=C(NS(=O)(=O)c1ccc(Br)s1)c1ccc(Cl)cc1Cl [Tasisulam]	0.966 ± 0.16	0.92 ± 0.12
C/C(=N\NC(=O)c1cccc(S(=O)(=O)N2CCOCC2)c1)c1cc(Cl)ccc1O	0.867 ± 0.04	0.782 ± 0.085
CC(Nc1nc(N2CCCC2)nc2ccccc12)c1ccccc1 (stereo not drawn) [Importazole]	0.996 ± 0.11	0.85 ± 0.16
C=CCSCC(N)C(=O)O (stereo not drawn)	0.995 ± 0.29	1.06 ± 0.034

A stretch from further up:
SMILES	cell count (compound dose 1 µM)	cell count (compound dose 5 µM)
CC(O)(P(=O)(O)O)P(=O)(O)O [Etidronic acid]	1.01 ± 0.028	1.052 ± 0.0071
CC[C@@H]1/C=C(\C)C[C@H](C)C[C@H](OC)[C@H]2O[C@@](O)(C(=O)C(=O)N3CCCC[C@H]3C(=O)O[C@H](/C(C)=C/[C@@H]3CC[C@@H](O)[C@H](OC)C3)[C@H](C)[C@@H](O)CC1=O)[C@H](C)C[C@@H]2OC [Ascomycin]	0.96 ± 0.2	0.806 ± 0.042
COc1ccc(N2C(=O)/C(=C\c3ccc([N+](=O)[O-])s3)SC2=S)cc1	0.583 ± 0.053	0.338 ± 0.2

Next entries.

SMILES	cell count (compound dose 1 µM)	cell count (compound dose 5 µM)
COc1cc2c(c(OC)c1OC)-c1c(cc3c(c1OC)OCO3)C[C@H](C)[C@H](C)C2 [Gomisin N]	1.13 ± 0.25	1.02 ± 0.078
CCOC(=O)C1=CCCC[C@H]1S(=O)(=O)Nc1ccc(F)cc1Cl [Resatorvid]	1.02 ± 0.13	0.644 ± 0.11
Nc1cccc2c1CN(C1CCC(=O)NC1=O)C2=O (stereo not drawn) [Lenalidomide]	0.912 ± 0.17	0.892 ± 0.056
COc1nc(-c2ccc3c(c2)OCO3)n(-c2ccc(NC(=O)CSc3ccccc3)cc2)n1 [SecinH3]	0.832 ± 0.13	0.73 ± 0.18
O=C(Nc1ccc(-c2ccnc(Nc3ccc(N4CCOCC4)cc3)n2)cc1)C1CCCN1 (stereo not drawn)	1.08 ± 0.035	1.25 ± 0.1
O=C(Nc1ccc(Cl)c(Cl)c1)Nc1ccc2nnsc2c1	1.16 ± 0.091	1.43 ± 0.22
CN1C(=O)[C@@H](NC(=O)c2cc(Cc3ccccc3)on2)COc2ccccc21	1.29 ± 0.083	0.859 ± 0.076
COc1c(/C=C/C(=O)c2ccc(O)cc2)ccc(O)c1O [Licochalcone B]	1.006 ± 0.0085	1.09 ± 0.14
O=C(O)CC1CC(c2ccccc2)=NO1 (stereo not drawn)	1.03 ± 0.079	1.13 ± 0.13
COC[C@H](NC(=O)c1cnc(C)s1)C(=O)N[C@@H](COC)C(=O)N[C@@H](Cc1ccccc1)C(=O)[C@@]1(C)CO1 [Oprozomib]	0.807 ± 0.08	0.181 ± 0.09
CC(CCC(=O)NCCS(=O)(=O)O)C1CCC2C3C(O)CC4CC(O)CCC4(C)C3CCC12C (stereo not drawn) [Taurochenodeoxycholic acid (sodium salt)]	1.21 ± 0.079	0.903 ± 0.03
COc1ccc(CC[C@@H](OC(=O)[C@@H]2CCCCN2C(=O)[C@H](c2cc(OC)c(OC)c(OC)c2)C2CCCCC2)c2cccc(OCCN3CCOCC3)c2)cc1OC	1.19 ± 0.044	0.642 ± 0.4
COc1ccc(-c2cc(C(F)F)nn2-c2ccc(S(N)(=O)=O)cc2)cc1F	0.887 ± 0.069	0.638 ± 0.16
S=C(N/N=C1/CCCc2cccnc21)N1CCN(c2ccccn2)CC1	1.2 ± 0.1	0.64 ± 0.3
NC(=O)[C@H](CCCN=C(N)CCl)NC(=O)c1ccccc1 [Cl-amidine (hydrochloride)]	1.21 ± 0.14	1.23 ± 0.16
COc1cc(/C=C/c2ccc(O)c(O)c2)cc(OC)c1 [3'-Hydroxypterostilbene]	1.1 ± 0.1	0.829 ± 0.059
C[C@H](Oc1cc(-c2cnn(C3CCNCC3)c2)cnc1N)c1c(Cl)ccc(F)c1Cl [(S)-Crizotinib]	1.09 ± 0.11	0.973 ± 0.25
O=C1CC[C@H](N2Cc3c(OCc4ccc(CN5CCOCC5)cc4)cccc3C2=O)C(=O)N1 [Iberdomide]	1.21 ± 0.025	0.702 ± 0.19
CC1(C)CC[C@]2(C(=O)O)[C@H](O)C[C@]3(C)C(=CC[C@@H]4[C@@]5(C)CC[C@H](O)C(C)(C)[C@@H]5CC[C@]43C)[C@H]2C1 [Echinocystic acid]	1.05 ± 0.23	0.984 ± 0.015
